The values that follow come from publication PMC11780537.

Chains of the proteins cited; added tags and fusions are not shown.
UniProt P52332: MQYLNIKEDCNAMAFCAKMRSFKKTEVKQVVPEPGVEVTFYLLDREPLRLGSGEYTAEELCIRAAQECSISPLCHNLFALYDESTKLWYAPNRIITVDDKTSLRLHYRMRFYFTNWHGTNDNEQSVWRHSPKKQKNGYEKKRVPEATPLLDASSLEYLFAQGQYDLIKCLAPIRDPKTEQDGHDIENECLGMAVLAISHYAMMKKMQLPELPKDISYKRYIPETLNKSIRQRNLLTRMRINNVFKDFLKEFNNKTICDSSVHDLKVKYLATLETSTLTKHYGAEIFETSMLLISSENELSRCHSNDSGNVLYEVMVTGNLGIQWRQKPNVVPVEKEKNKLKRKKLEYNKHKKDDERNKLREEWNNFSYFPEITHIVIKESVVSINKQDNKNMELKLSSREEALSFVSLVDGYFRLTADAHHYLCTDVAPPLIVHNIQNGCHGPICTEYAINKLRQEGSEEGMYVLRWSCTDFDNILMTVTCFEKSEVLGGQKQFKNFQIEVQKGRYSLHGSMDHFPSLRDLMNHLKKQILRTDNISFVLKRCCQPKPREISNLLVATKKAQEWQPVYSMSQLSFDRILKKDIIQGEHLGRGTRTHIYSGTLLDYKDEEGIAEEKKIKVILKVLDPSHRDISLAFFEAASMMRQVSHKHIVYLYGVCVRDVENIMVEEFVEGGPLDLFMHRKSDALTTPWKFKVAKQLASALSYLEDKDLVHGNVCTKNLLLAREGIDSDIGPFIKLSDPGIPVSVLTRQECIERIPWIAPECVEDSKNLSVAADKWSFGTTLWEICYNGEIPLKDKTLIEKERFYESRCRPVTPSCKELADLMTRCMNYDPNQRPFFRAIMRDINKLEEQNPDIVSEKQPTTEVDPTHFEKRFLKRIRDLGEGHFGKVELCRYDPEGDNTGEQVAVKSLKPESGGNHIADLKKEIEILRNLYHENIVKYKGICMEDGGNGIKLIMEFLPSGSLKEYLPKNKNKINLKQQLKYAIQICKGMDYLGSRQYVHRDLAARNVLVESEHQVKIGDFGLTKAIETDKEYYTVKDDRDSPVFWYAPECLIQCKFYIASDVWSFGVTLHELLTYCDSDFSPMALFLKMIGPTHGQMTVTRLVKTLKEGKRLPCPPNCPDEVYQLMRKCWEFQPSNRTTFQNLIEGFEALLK

The target of assay [1] is T1, MYSM1 (Co-IP with JAK1 and SHP2, Figure S5B-C) (UniProt Q69Z66).
T1 sequence: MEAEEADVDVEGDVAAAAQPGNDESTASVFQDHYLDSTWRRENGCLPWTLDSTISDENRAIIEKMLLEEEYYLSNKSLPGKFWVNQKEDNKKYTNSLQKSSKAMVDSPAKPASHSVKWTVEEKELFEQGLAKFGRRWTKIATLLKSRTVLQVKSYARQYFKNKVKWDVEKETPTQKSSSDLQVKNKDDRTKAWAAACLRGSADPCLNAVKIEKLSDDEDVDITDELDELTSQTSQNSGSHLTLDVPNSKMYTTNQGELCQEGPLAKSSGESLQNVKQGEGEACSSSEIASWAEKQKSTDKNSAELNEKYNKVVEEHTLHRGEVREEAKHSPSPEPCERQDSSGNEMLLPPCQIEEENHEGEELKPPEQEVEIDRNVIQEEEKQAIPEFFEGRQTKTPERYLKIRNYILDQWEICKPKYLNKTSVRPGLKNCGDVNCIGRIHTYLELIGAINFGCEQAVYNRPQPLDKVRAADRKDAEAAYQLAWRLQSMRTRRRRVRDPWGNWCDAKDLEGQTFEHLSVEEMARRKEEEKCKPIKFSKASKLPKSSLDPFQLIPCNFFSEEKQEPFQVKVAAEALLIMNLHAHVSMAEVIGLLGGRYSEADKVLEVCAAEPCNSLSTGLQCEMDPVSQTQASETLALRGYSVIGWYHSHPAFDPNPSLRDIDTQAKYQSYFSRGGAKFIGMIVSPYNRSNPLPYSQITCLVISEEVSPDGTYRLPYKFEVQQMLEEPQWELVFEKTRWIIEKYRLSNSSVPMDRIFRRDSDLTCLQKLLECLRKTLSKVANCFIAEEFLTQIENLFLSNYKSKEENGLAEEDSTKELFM
As to the kind of experiment: co-IP; Co-IP of MYSM1 with JAK1 or SHP2 (Figure S5B-C); cells, bait and antibodies not told in the text shown.

The target in assay [2] is T2, signal transducer and activator of transcription 1 (STAT1), endogenous (mouse (endogenous in mouse heart and HL-1)) (UniProt P42225).
T2 sequence: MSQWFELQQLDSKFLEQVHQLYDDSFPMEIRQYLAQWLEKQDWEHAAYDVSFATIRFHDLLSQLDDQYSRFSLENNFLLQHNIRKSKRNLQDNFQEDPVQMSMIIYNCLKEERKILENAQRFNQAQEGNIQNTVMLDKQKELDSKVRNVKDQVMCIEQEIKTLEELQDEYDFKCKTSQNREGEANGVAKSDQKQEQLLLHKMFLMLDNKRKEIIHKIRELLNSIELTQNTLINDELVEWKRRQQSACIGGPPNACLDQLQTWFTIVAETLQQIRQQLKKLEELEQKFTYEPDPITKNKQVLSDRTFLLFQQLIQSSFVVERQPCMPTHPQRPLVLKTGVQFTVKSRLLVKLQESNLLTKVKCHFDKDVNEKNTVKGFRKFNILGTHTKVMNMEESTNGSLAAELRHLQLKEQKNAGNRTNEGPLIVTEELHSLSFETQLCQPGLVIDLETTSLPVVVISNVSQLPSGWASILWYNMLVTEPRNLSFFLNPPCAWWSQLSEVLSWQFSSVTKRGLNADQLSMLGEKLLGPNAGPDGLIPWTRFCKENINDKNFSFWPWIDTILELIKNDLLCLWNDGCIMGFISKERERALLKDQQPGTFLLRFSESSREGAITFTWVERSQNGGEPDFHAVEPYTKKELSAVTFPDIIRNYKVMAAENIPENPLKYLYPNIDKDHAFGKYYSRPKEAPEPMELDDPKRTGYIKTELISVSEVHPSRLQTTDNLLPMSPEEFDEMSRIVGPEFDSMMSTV
As to the kind of experiment: co-IP; H/R-induced HL-1 cells; immunoprecipitation with anti-STAT1 antibody, endogenous MYSM1 detected by blot.

Assay [3] deals with T2, signal transducer and activator of transcription 1 (STAT1), endogenous (mouse (endogenous in mouse heart and HL-1)). As to the kind of experiment: co-IP; mouse heart tissue with myocardial I/R injury; immunoprecipitation with anti-STAT1 antibody, endogenous MYSM1 detected by blot.

No constants are given. Whether binding was seen depends on the method and setting. Binding seen in cells or lysates may run through a third protein. Some binding calls cover weakened binding; strength is not graded here.

As for “JAK1 (from UniProt P52332 1-1153) (enzyme)”, the binding entry in assay [1] is recorded as “no binding”.

B1: Myb-like, SWIRM, and MPN domains 1 protein (MYSM1), endogenous (enzyme, UniProt Q69Z66 1-819)
chain: T1 sequence
Consider B1, for which the binding entry in assay [2] and in assay [3] was “binds” each time.
